Measurements reported in patent publication US7709481B2, “Phenyl-1,2,4-oxadiazolone derivatives, processes for their preparation and methods for their use as pharmaceuticals” (Sanofi-Aventis, priority 2005, dated 2010).
Some entries share one result that the patent states for a list of compounds.

Target: T1, human PPARalpha (Homo sapiens, UniProt Q07869)
T1 construct: human PPARalpha receptor (amino acids S167-Y468); expressed in transfected cells; plasmid pcDNA3
T1 sequence (Q07869 167-468): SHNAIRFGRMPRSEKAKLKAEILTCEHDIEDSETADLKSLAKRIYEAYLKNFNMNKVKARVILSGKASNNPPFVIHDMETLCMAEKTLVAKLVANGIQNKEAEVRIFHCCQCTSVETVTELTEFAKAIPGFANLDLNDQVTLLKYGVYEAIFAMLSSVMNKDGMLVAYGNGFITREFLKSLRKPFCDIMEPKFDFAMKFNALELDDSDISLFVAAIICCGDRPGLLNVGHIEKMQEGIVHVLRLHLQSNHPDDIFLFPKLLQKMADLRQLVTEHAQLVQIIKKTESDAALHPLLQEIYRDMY
Test: Cellular PPARalpha assay (HEK PPARalpha reporter cell line, luciferase)
Format: cell-based
Conditions: nM to μM; read-out: PPARalpha EC50 values (range over examples)
Description: The activity of the compounds was tested as follows. The potency of substances which bind to human PPARalpha and activate it in an agonistic manner is analyzed using a stably transfected HEK cell line (HEK=human embryo kidney) which is referred to here as PPARalpha reporter cell line. It contains two genetic elements, a luciferase reporter element (pdeltaM-GAL4-Luc-Zeo) and a PPARalpha fusion protein (GR-GAL4-humanPPARalpha-LBD) which mediates expression of the luciferase reporter element depending on a PPARalpha ligand. The stably and constitutively expressed fusion protein GR-GAL4-humanPPARalpha-LBD binds in the cell nucleus of the PPARalpha reporter cell line via the GAL4 protein portion to the GAL4 DNA binding motifs 5′-upstream of the luciferase reporter element which is stably integrated in the genome of the cell line. There is only weak expression of the luciferase reporter gene in the absence of a PPARalpha ligand if fatty acid-depleted fetal calf serum (cs-FCS) is used in the assay. PPARalpha ligands bind and activate the PPARalpha fusion protein and thereby stimulate the expression of the luciferase reporter gene. The luciferase which is formed can be detected by means of chemiluminescence via an appropriate substrate.
The PPARalpha reporter cell line was prepared in two stages. Firstly, the luciferase reporter element was constructed and stably transfected into HEK cells. For this purpose, five binding sites of the yeast transcription factor GAL4 (Accession # AF264724) were cloned in 5′-upstream of a 68 bp-long minimal MMTV promoter (Accession # V01175). The minimal MMTV promoter section contains a CCAAT box and a TATA element in order to enable efficient transcription by RNA polymerase II. The cloning and sequencing of the GAL4-MMTV construct took place in analogy to the description of Sambrook J. et. al. (Molecular cloning, Cold Spring Harbor Laboratory Press, 1989). Then the complete Photinus pyralis gene (Accession # M15077) was cloned in 3′-downstream of the GAL4-MMTV element. After sequencing, the luciferase reporter element consisting of five GAL4 binding sites, MMTV promoter and luciferase gene was recloned into a plasmid which confers zeocin resistance in order to obtain the plasmid pdeltaM-GAL4-Luc-Zeo. This vector was transfected into HEK cells in accordance with the statements in Ausubel, F. M. et al. (Current protocols in molecular biology, Vol. 1-3, John Wiley & Sons, Inc., 1995).
In a second step, the PPARalpha fusion protein (GR-GAL4-humanPPARalpha-LBD was introduced into the stable cell clone described. For this purpose, initially the cDNA coding for the N-terminal 76 amino acids of the glucocorticoid receptor (Accession # P04150) was linked to the cDNA section coding for amino acids 1-147 of the yeast transcription factor GAL4 (Accession # P04386). The cDNA of the ligand-binding domain of the human PPARalpha receptor (amino acids S167-Y468; Accession # S74349) was cloned in at the 3′-end of this GR-GAL4 construct. The fusion construct prepared in this way (GR-GAL4-humanPPARalpha-LBD) was recloned into the plasmid pcDNA3 (Invitrogen) in order to enable constitutive expression therein by the cytomegalovirus promoter. This plasmid was linearized with a restriction endonuclease and stably transfected into the previously described cell clone containing the luciferase reporter element. The finished PPARalpha reporter cell line which contains a luciferase reporter element and constitutively expresses the PPARalpha fusion protein (GR-GAL4-human PPARalpha-LBD) was isolated by selection with zeocin (0.5 mg/ml) and G418 (0.5 mg/ml).
The activity of PPARalpha agonists is determined in a 3-day assay which is described below: […]

SMILES	EC50 [nM]
Cc1nc(C2CCCCC2)oc1COc1ccc(-c2noc(=O)[nH]2)c(Cl)c1 [Example 2, 3-[2-Chloro-4-(2-cyclohexyl-4-methyl-oxazol-5-ylmethoxy)-phenyl]-4H-[1,2,4]oxadiazol-5-one]	≥ 10
Cc1nc(C2CCCCC2)sc1COc1ccc(-c2noc(=O)[nH]2)c(Cl)c1 [Example 5, 3-[2-Chloro-4-(2-cyclohexyl-4-methyl-thiazol-5-ylmethoxy)-phenyl]-4H-[1,2,4]oxadiazol-5-one]	≥ 10
COCc1nc([C@H]2CC[C@H](c3ccc(Cl)cc3)CC2)sc1COc1ccc(-c2noc(=O)[nH]2)c(Cl)c1 [Example 12, Trans-3-(2-Chloro-4-{2-[4-(4-chloro-phenyl)-cyclohexyl]-4-methoxymethyl-thiazol-5-ylmethoxy}-phenyl)-4H-[1,2,4]oxadiazol-5-one]	≥ 10
CCC(Oc1ccc(-c2noc(=O)[nH]2)c(OC)c1)c1sc([C@H]2CC[C@H](C(F)(F)F)CC2)nc1C (stereo partly drawn) [Example 49, 3-(2-Methoxy-4-{1-[4-methyl-2-(trans-1,4-trifluoromethyl-cyclohexyl)-thiazol-5-yl]-propoxy}-phenyl)-4H-1,2,4-oxadiazol-5-one]	≥ 10
CCC(F)(F)C(OCc1ccc(-c2noc(=O)[nH]2)c2cccnc12)c1sc(-c2ccc(C(F)(F)F)nc2)nc1C (stereo not drawn) [Example 43, 3-(8-{2,2-Difluoro-1-[4-methyl-2-(6-trifluoromethyl-pyridin-3-yl)-thiazol-5-yl]-butoxymethyl}-quinolin-5-yl)-4H-[1,2,4]oxadiazol-5-one]	≥ 10
CCC(Oc1cc(OC)c(-c2noc(=O)[nH]2)cc1F)c1sc([C@H]2CC[C@H](C(F)(F)F)CC2)nc1C (stereo partly drawn) [Example 51, 3-(5-Fluoro-2-methoxy-4-{1-[4-methyl-2-(trans-1,4-trifluoromethyl-cyclohexyl)-thiazol-5-yl]-propoxy}-phenyl)-4H-1,2,4-oxadiazol-5-one]	≥ 10
Cc1nc(C2CCN(c3ccccc3)CC2)sc1COc1ccc(-c2noc(=O)[nH]2)c(Cl)c1 [Example 8, 3-{2-Chloro-4-[4-methyl-2-(1-phenyl-piperidin-4-yl)-thiazol-5-ylmethoxy]-phenyl}-4H-[1,2,4]oxadiazol-5-one]	≥ 10
CCC(Oc1cc(OC(F)F)c(-c2noc(=O)[nH]2)cc1F)c1sc([C@H]2CC[C@H](C(F)(F)F)CC2)nc1CN1CCC(C(F)(F)F)CC1 (stereo partly drawn) [Example 63, 3-(2-Difluoromethoxy-5-fluoro-4-{1-[2-(trans-1,4-trifluoromethyl-cyclohexyl)-4-(4-trifluoromethyl-piperidin-1-ylmethyl)-thiazol-5-yl]-propoxy}-phenyl)-4H-1,2,4-oxadiazol-5-one]	≥ 10
Cc1nc(C2(C)CCCCC2)oc1COc1ccc(-c2noc(=O)[nH]2)c(Cl)c1 [Example 1, 3-{2-Chloro-4-[4-methyl-2-(1-methyl-cyclohexyl)-oxazol-5-ylmethoxy]-phenyl}-4H-[1,2,4]oxadiazol-5-one]	≥ 10
CCC(Oc1cc(OC)c(-c2noc(=O)[nH]2)cc1F)c1sc([C@H]2CC[C@H](C(F)(F)F)CC2)nc1CN1CCC(C(F)(F)F)CC1 (stereo partly drawn) [Example 59, 3-(5-Fluoro-2-methoxy-4-{1-[2-(trans-1,4-trifluoromethyl-cyclohexyl)-4-(4-trifluoromethyl-piperidin-1-ylmethyl)-thiazol-5-yl]-propoxy}-phenyl)-4H-1,2,4-oxadiazol-5-one]	≥ 10
Cc1nc([C@H]2CC[C@H](C(F)(F)F)CC2)sc1COc1ccc(-c2noc(=O)[nH]2)c(OC(F)F)c1 [Example 52, 3-{2-Difluoromethoxy-4-[4-methyl-2-(trans-1,4-trifluoromethyl-cyclohexyl)-thiazol-5-ylmethoxy]-phenyl}-4H-1,2,4-oxadiazol-5-one]	≥ 10
Cc1nc([C@H]2CC[C@H](C(F)(F)F)CC2)sc1COc1cc(OC(F)F)c(-c2noc(=O)[nH]2)cc1F [Example 54, 3-{2-Difluoromethoxy-5-fluoro-4-[4-methyl-2-(trans-1,4-trifluoromethyl-cyclohexyl)-thiazol-5-ylmethoxy]-phenyl}-4H-1,2,4-oxadiazol-5-one]	≥ 10
